PMC11009412, “Pathogenic mutations of human phosphorylation sites affect protein–protein interactions” (Nature Communications, 2024)

T1: BirA*-FLAG-GATAD1 S102A (human) (UniProt Q8WUU5)
T1 sequence: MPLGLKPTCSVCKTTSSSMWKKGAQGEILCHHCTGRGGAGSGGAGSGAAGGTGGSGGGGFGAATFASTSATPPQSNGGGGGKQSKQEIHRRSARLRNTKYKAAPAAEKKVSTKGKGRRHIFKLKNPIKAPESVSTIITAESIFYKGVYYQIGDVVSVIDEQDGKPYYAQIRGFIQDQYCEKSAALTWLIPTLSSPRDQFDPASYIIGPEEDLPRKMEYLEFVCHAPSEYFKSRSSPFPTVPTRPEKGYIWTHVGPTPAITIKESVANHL

T2: BirA*-FLAG-GATAD1 S102D (human) (UniProt Q8WUU5)
T2 sequence: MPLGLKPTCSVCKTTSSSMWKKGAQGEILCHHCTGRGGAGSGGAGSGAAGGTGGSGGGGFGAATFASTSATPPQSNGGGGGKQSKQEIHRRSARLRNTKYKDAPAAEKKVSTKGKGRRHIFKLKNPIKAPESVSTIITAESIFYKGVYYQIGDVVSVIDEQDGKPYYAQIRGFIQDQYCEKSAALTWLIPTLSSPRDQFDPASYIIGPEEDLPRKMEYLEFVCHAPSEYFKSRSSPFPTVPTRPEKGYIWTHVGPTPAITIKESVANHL

T3: BirA*-FLAG-GATAD1 S102P (human) (UniProt Q8WUU5)
T3 sequence: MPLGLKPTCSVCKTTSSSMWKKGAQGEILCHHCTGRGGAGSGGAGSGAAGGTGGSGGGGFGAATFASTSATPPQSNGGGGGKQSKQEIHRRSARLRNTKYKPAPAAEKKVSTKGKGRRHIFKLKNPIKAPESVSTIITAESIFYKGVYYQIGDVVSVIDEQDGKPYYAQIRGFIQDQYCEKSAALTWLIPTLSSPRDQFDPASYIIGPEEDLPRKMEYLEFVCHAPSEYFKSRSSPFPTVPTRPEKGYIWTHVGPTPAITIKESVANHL

T4: BirA*-FLAG-GATAD1 wild-type (WT) (human) (UniProt Q8WUU5)
T4 sequence: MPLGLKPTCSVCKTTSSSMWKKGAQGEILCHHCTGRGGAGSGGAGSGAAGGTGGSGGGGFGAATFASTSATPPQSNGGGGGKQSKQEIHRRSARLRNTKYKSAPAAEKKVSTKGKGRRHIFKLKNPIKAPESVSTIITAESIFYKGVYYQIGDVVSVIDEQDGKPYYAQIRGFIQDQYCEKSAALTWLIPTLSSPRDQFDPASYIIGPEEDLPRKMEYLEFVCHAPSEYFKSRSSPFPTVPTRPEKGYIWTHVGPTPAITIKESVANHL

T5: GATAD1 pS102 peptide, position +4 alanine to glycine (alanine scanning) (human) (UniProt Q8WUU5)
T5 sequence (peptide, phosphoserine at 102): LRNTKYKSAPAGEKK

T6: GATAD1 pS102 peptide, position -2 to alanine (alanine scanning) (human) (UniProt Q8WUU5)
T6 sequence (peptide, phosphoserine at 102): LRNTKAKSAPAAEKK

T7: GATAD1 pS102 peptide, position -5 to alanine (alanine scanning) (human) (UniProt Q8WUU5)
T7 sequence (peptide, phosphoserine at 102): LRATKYKSAPAAEKK

T8: GATAD1 S102P peptide on cellulose membrane (PRISMA) (human) (UniProt Q8WUU5)
T8 sequence (peptide): LRNTKYKPAPAAEKK

T9: GATAD1 pS102 peptide, position -1 to alanine (alanine scanning) (human) (UniProt Q8WUU5)
T9 sequence (peptide, phosphoserine at 102): LRNTKYASAPAAEKK

T10: GATAD1 pS102 peptide, proline in position +2 to alanine (alanine scanning) (human) (UniProt Q8WUU5)
T10 sequence (peptide, phosphoserine at 102): LRNTKYKSAAAAEKK

T11: GATAD1 pS102 peptide, position -4 to alanine (alanine scanning) (human) (UniProt Q8WUU5)
T11 sequence (peptide, phosphoserine at 102): LRNAKYKSAPAAEKK

T12: GATAD1 pS102 peptide, position +3 alanine to glycine (alanine scanning) (human) (UniProt Q8WUU5)
T12 sequence (peptide, phosphoserine at 102): LRNTKYKSAPGAEKK

T13: GATAD1 pS102 peptide, position +5 to alanine (alanine scanning) (human) (UniProt Q8WUU5)
T13 sequence (peptide, phosphoserine at 102): LRNTKYKSAPAAAKK

T14: GATAD1 pS102 peptide, position -3 to alanine (alanine scanning) (human) (UniProt Q8WUU5)
T14 sequence (peptide, phosphoserine at 102): LRNTAYKSAPAAEKK

T15: GATAD1 aspartic acid mutant (S102D) peptide on cellulose membrane (alanine scanning) (human) (UniProt Q8WUU5)
T15 sequence (peptide): LRNTKYKDAPAAEKK


Legend:
[1] = target: T1, BirA*-FLAG-GATAD1 S102A (human); test: affinity purification with mass spectrometry; FLAG immunoprecipitation (ANTI-FLAG M2 magnetic beads, 2 h) of BirA*-FLAG-GATAD1 variants from tetracycline-induced Flp-In-293 T-REx lysate (50 mM Tris HCl pH 7.4, 150 mM NaCl, 1 mM EDTA, 1% Triton X-100); control non-induced cells; label-free, triplicates
[2] = target: T2, BirA*-FLAG-GATAD1 S102D (human); test: as above
[3] = target: T3, BirA*-FLAG-GATAD1 S102P (human); test: as above
[4] = target: T4, BirA*-FLAG-GATAD1 wild-type (WT) (human); test: as above
[5] = target: T5, GATAD1 pS102 peptide, position +4 alanine to glycine (alanine scanning) (human); test: affinity purification with mass spectrometry; PRISMA alanine scanning: 15 GATAD1-derived peptides on a cellulose membrane in triplicates, pull-down from HEK-293T lysate, label-free quantification, one-way ANOVA; only the target purified
[6] = target: T6, GATAD1 pS102 peptide, position -2 to alanine (alanine scanning) (human); test: as above
[7] = target: T7, GATAD1 pS102 peptide, position -5 to alanine (alanine scanning) (human); test: as above
[8] = target: T8, GATAD1 S102P peptide on cellulose membrane (PRISMA) (human); test: as above
[9] = target: T9, GATAD1 pS102 peptide, position -1 to alanine (alanine scanning) (human); test: as above
[10] = target: T10, GATAD1 pS102 peptide, proline in position +2 to alanine (alanine scanning) (human); test: as above
[11] = target: T11, GATAD1 pS102 peptide, position -4 to alanine (alanine scanning) (human); test: as above
[12] = target: T12, GATAD1 pS102 peptide, position +3 alanine to glycine (alanine scanning) (human); test: as above
[13] = target: T13, GATAD1 pS102 peptide, position +5 to alanine (alanine scanning) (human); test: as above
[14] = target: T14, GATAD1 pS102 peptide, position -3 to alanine (alanine scanning) (human); test: as above
[15] = target: T15, GATAD1 aspartic acid mutant (S102D) peptide on cellulose membrane (alanine scanning) (human); test: as above

Row | Binder | binding [1] | binding [2] | binding [3] | binding [4] | binding [5] | binding [6] | binding [7] | binding [8] | binding [9] | binding [10] | binding [11] | binding [12] | binding [13] | binding [14] | binding [15]
1 | SIN3B (protein, UniProt O75182 1-1162) MAHAGGGSGGSGAGGPAGRGLSGARWGRSGSAGHEKLPVHVEDALTYLDQVKIRFGSDPATYNGFLEIMKEFKSQSIDTPGVIRRVSQLFHEHPDLIVGFNAFLPLGYRIDIPKNGKLNIQSPLTSQENSHNHGDGAEDFKQQVPYKEDKPQVPLESDSVEFNNAISYVNKIKTRFLDHPEIYRSFLEILHTYQKEQLNTRGRPFRGMSEEEVFTEVANLFRGQEDLLSEFGQFLPEAKRSLFTGNGPCEMHSVQKNEHDKTPEHSRKRSRPSLLRPVSAPAKKKMKLRGTKDLSIAAVGKYGTLQEFSFFDKVRRVLKSQEVYENFLRCIALFNQELVSGSELLQLVSPFLGKFPELFAQFKSFLGVKELSFAPPMSDRSGDGISREIDYASCKRIGSSYRALPKTYQQPKCSGRTAICKELDHWTLLQGSWTDDYCMSKFKNTCWIPGYSAGVLNDTWVSFPSWSEDSTFVSSKKTPYEEQLHRCEDERFELDVVLETNLATIRVLESVQKKLSRMAPEDQEKFRLDDSLGGTSEVIQRRAIYRIYGDKAPEIIESLKKNPVTAVPVVLKRLKAKEEEWREAQQGFNKIWREQYEKAYLKSLDHQAVNFKQNDTKALRSKSLLNEIESVYDEHQEQHSEGRSAPSSEPHLIFVYEDRQILEDAAALISYYVKRQPAIQKEDQGTIHQLLHQFVPSLFFSQQLDLGASEESADEDRDSPQGQTTDPSERKKPAPGPHSSPPEEKGAFGDAPATEQPPLPPPAPHKPLDDVYSLFFANNNWYFFLRLHQTLCSRLLKIYRQAQKQLLEYRTEKEREKLLCEGRREKGSDPAMELRLKQPSEVELEEYYPAFLDMVRSLLEGSIDPTQYEDTLREMFTIHAYVGFTMDKLVQNIARQLHHLVSDDVCLKVVELYLNEKKRGAAGGNLSSRCVRAARETSYQWKAERCMADENCFKVMFLQRKGQVIMTIELLDTEEAQTEDPVEVQHLARYVEQYVGTEGASSSPTEGFLLKPVFLQRNLKKFRRRWQSEQARALRGEARSSWKRLVGVESACDVDCRFKLSTHKMVFIVNSEDYMYRRGTLCRAKQVQPLVLLRHHQHFEEWHSRWLEDNVTVEAASLVQDWLMGEEDEDMVPCKTLCETVHVHGLPVTRYRVQYSRRPASP | binds | binds | binds | binds |  |  |  |  |  |  |  |  |  |  | 
2 | 14-3-3 gamma (protein, UniProt P61981 1-247) MVDREQLVQKARLAEQAERYDDMAAAMKNVTELNEPLSNEERNLLSVAYKNVVGARRSSWRVISSIEQKTSADGNEKKIEMVRAYREKIEKELEAVCQDVLSLLDNYLIKNCSETQYESKVFYLKMKGDYYRYLAEVATGEKRATVVESSEKAYSEAHEISKEHMQPTHPIRLGLALNYSVFYYEIQNAPEQACHLAKTAFDDAIAELDTLNEDSYKDSTLIMQLLRDNLTLWTSDQQDDDGGEGNN |  |  |  |  | binds | binds | binds | no binding | binds | binds | binds | binds | binds | binds | no binding
3 | TNPO3 (protein, UniProt Q9Y5L0 1-923) MEGAKPTLQLVYQAVQALYHDPDPSGKERASFWLGELQRSVHAWEISDQLLQIRQDVESCYFAAQTMKMKIQTSFYELPTDSHASLRDSLLTHIQNLKDLSPVIVTQLALAIADLALQMPSWKGCVQTLVEKYSNDVTSLPFLLEILTVLPEEVHSRSLRIGANRRTEIIEDLAFYSSTVVSLLMTCVEKAGTDEKMLMKVFRCLGSWFNLGVLDSNFMANNKLLALLFEVLQQDKTSSNLHEAASDCVCSALYAIENVETNLPLAMQLFQGVLTLETAYHMAVAREDLDKVLNYCRIFTELCETFLEKIVCTPGQGLGDLRTLELLLICAGHPQYEVVEISFNFWYRLGEHLYKTNDEVIHGIFKAYIQRLLHALARHCQLEPDHEGVPEETDDFGEFRMRVSDLVKDLIFLIGSMECFAQLYSTLKEGNPPWEVTEAVLFIMAAIAKSVDPENNPTLVEVLEGVVRLPETVHTAVRYTSIELVGEMSEVVDRNPQFLDPVLGYLMKGLCEKPLASAAAKAIHNICSVCRDHMAQHFNGLLEIARSLDSFLLSPEAAVGLLKGTALVLARLPLDKITECLSELCSVQVMALKKLLSQEPSNGISSDPTVFLDRLAVIFRHTNPIVENGQTHPCQKVIQEIWPVLSETLNKHRADNRIVERCCRCLRFAVRCVGKGSAALLQPLVTQMVNVYHVHQHSCFLYLGSILVDEYGMEEGCRQGLLDMLQALCIPTFQLLEQQNGLQNHPDTVDDLFRLATRFIQRSPVTLLRSQVVIPILQWAIASTTLDHRDANCSVMRFLRDLIHTGVANDHEEDFELRKELIGQVMNQLGQQLVSQLLHTCCFCLPPYTLPDVAEVLWEIMQVDRPTFCRWLENSLKGLPKETTVGAVTVTHKQLTDFHKQVTSAEECKQVCWALRDFTRLFR |  |  |  |  |  |  |  | binds |  |  |  |  |  |  | binds

These are yes or no findings as the source states them, for the method shown. Binding seen in cells or lysates may run through a third protein. A yes stands for co-enrichment or nearness to the bait. Other partners may have been found. For some assays here: No binding means not detected with the bait. For some assays here: Sequences can lack the tags named with a protein.
